# In PubChem BioAssay (Tox21):
# Amino acid sequences for entries named in this document (tags omitted).
# UniProt P10635, whole entry, looked up: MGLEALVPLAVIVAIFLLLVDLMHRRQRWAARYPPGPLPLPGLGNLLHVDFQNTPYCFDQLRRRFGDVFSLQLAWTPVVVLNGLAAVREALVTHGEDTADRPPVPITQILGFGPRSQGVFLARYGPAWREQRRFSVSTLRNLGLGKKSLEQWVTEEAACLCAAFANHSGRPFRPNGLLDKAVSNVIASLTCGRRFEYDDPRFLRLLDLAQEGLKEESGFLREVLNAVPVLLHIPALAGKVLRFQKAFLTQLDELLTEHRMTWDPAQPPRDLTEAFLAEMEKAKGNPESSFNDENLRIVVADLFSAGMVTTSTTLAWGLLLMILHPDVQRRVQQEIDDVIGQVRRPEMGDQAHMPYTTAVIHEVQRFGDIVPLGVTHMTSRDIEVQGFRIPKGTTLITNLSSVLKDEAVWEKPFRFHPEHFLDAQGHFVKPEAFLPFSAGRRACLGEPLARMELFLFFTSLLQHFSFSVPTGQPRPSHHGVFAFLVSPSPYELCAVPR
# UniProt P33261, whole entry, looked up: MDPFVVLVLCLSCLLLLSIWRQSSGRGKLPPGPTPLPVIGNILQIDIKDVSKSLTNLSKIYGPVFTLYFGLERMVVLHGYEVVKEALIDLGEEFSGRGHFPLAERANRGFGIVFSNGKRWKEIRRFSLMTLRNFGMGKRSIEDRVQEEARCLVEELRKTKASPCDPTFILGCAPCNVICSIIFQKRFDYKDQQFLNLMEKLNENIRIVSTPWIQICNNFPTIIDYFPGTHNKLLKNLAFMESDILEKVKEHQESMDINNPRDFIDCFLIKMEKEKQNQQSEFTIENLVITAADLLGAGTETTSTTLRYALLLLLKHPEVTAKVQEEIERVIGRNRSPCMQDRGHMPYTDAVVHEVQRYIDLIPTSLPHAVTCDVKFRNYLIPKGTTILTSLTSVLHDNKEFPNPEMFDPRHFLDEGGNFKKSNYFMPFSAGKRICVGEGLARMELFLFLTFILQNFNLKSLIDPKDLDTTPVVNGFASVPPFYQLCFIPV
# UniProt P11712, whole entry, looked up: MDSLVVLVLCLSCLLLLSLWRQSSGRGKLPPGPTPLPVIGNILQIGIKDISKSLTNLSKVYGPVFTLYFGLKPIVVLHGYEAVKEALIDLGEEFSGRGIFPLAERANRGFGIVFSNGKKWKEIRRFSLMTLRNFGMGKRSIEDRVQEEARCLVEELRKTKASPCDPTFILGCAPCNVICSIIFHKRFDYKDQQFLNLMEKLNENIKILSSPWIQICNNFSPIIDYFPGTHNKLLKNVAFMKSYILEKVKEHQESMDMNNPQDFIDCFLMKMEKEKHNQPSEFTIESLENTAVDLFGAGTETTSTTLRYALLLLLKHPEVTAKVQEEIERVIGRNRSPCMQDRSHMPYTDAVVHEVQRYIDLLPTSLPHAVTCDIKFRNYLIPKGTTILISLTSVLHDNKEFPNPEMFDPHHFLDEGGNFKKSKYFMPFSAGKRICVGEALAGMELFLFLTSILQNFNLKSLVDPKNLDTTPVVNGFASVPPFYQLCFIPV
# UniProt P05177, whole entry, looked up: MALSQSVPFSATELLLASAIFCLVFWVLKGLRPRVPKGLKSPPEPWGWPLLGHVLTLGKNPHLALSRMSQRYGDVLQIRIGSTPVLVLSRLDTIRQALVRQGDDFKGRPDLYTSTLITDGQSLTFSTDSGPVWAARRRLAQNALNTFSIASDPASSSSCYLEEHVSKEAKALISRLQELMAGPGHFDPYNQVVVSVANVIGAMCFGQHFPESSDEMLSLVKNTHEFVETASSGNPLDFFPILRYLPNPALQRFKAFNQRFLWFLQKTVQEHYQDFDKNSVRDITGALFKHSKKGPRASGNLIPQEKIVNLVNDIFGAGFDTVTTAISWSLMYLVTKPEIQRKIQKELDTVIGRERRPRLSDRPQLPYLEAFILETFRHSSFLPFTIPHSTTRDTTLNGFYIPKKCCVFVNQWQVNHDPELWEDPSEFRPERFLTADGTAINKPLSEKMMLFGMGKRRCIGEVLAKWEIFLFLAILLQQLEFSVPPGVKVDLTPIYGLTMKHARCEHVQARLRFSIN
# The shares of active, inactive and inconclusive entries below differ from those in the screen. Potencies beside an inconclusive call are fits to weak or partial responses and may not hold up. Activity calls are given as the source filed them. The call rests on the fitted dose curve; in most records, active means well fitted inhibition curve with a large enough effect in the repeat runs; inconclusive means weak or mixed curves; inactive means no such curve, though single readings can be large or run the other way.
# Target: Cytochrome P450 2D6 (Homo sapiens) (UniProt P10635)
# Assay: Cytochrome P450 Family 2 Subfamily D Member 6 (CYP2D6) small molecule antagonists: luciferase reporter qHTS assay (AID 1671196); further: nearly all actives have a fitted effect of over 50% in size
# Settings: P450-Glo CYP2D6 enzyme assay, luciferin luminescence, 1 h; series mostly up to 115 µM
# Procedure, shortened: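 Test chemicals meet CYP2D6 plus proluciferin substrate (10 min, RT); NADPH regenerating solution then drives turnover for 1 h. Detection reagent halts the reaction; luminescence measured after 20 min.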
# On the % scale 0 is the no-effect control and ±100 the full control effect; potency means the concentration at half of the fitted maximal effect.
SMILES,"activity change, negative = inhibition",Potency
NCC[C@H](O)C(=O)N[C@@H]1C[C@H](N)[C@@H](O[C@H]2O[C@H](CN)[C@@H](O)[C@H](O)[C@H]2O)[C@H](O)[C@H]1O[C@H]1O[C@H](CO)[C@@H](O)[C@H](N)[C@H]1O,inactive: -0.464% [at 0.435 µM],
CN(C)CCc1c[nH]c2ccc(CS(=O)(=O)N3CCCC3)cc12,,"inconclusive: 24.5 µM [inhibitor, partial curve]"
FC(F)(F)C(F)(F)C(F)(F)C(F)(F)C(F)(F)C(F)(F)C(F)(F)C(F)(F)C(F)(F)C(F)(F)F,inactive: -5% [at 10.5 µM],
O=C(O)/C=C/c1ccccc1,,active: 39.9 µM
O=CC1CC=CCC1 (stereo unspecified),,active: 55.9 µM
CN1[C@@H]2CC[C@H]1CC(OC(=O)C(O)c1ccccc1)C2 (stereo partly specified),,inactive
CC1=C(C/C=C(\C)CCC[C@H](C)CCC[C@H](C)CCCC(C)C)C(=O)c2ccccc2C1=O,,"inconclusive: 27.5 µM [inhibitor, partial curve, poor fit]"
COC(=O)c1ccc(C=O)cc1,,inactive
Cc1ccc(O)c(C(=O)c2ccccc2)c1,,active: 11.4 µM
CC(C)(C)c1nnc(NS(=O)(=O)c2ccc(N)cc2)s1,,"inconclusive: 38.9 µM [inhibitor, single point]"
CN1CN(C)CN(C)C1,,inactive
Nc1ccc(C(=O)N2CC3CC(CN(Cc4ccccc4)C3)C2)cc1,,"inconclusive: 30.9 µM [inhibitor, partial curve]"

# Target: Cytochrome P450 2C19 (Homo sapiens) (UniProt P33261)
# Assay: Cytochrome P450 Family 2 Subfamily C Member 19 (CYP2C19) small molecule antagonists: luciferase reporter qHTS assay (AID 1671197); further: nearly all actives have a fitted effect of over 65% in size
# Settings: P450-Glo CYP2C19 enzyme, luciferin luminescence, 1 h; series mostly up to 115 µM
# Procedure, shortened: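 Compounds were tested on CYP2C19 activity via proluciferin conversion to luciferin. The 37C, 1 h reaction followed NADPH addition; detection reagent stopped it.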
row,SMILES,Potency
1,NCc1ccccc1Sc1ccccc1CO,active: 21.9 µM
2,C=C(C)C(=O)OC,inconclusive: 77.2 µM [inhibitor]
3,CCCCCCCCCCCCCCCCCC#N,"inconclusive: 90.7 µM [inhibitor, single point]"
4,O=Cc1cc2ccccc2o1,"inconclusive: 79.6 µM [inhibitor, single point]"
5,O=C1Nc2ccccc2C1=O,"inconclusive: 79 µM [inhibitor, single point]"
6,CC1=C(C/C=C(\C)CCC[C@H](C)CCC[C@H](C)CCCC(C)C)C(=O)c2ccccc2C1=O,inactive
7,Cc1ccc(O)c(C(=O)c2ccccc2)c1,active: 1.01 µM
8,CC1(C)CC(N)CC(C)(C)N1,inactive
9,Clc1ccc2c(c1)Nc1ccccc1S2,active: 3.89 µM
10,CC(C)(C)c1cc(CCC(=O)NCCCCCCNC(=O)CCc2cc(C(C)(C)C)c(O)c(C(C)(C)C)c2)cc(C(C)(C)C)c1O,"inconclusive: 3.99 µM [inhibitor, full curve, poor fit]"
11,Nc1ccc(C(=O)N2CC3CC(CN(Cc4ccccc4)C3)C2)cc1,"inconclusive: 43.6 µM [inhibitor, single point]"
12,C/C=C1\C(=O)C[C@H]2[C@@H]3CCC4=CC(=O)CC[C@]4(C)[C@H]3CC[C@]12C,active: 6.2 µM

# Target: Cytochrome P450 2C9 (Homo sapiens) (UniProt P11712)
# Assay: Cytochrome P450 Family 2 Subfamily C Member 9 (CYP2C9) small molecule antagonists: luciferase reporter qHTS assay (AID 1671198); further: nearly all actives have a fitted effect of over 50% in size
# Settings: P450-Glo CYP2C9 enzyme assay, luciferin luminescence; series mostly up to 115 µM
# Procedure, shortened: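 CYP2C9 activity was measured with a P450-Glo proluciferin substrate. Enzyme–substrate mix was held with compound for 10 min at room temperature, then NADPH regeneration solution was added for 1 h at 37C. Luciferin product was read as luminescence.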
row,SMILES,Potency
1,O=C(O)/C=C/C(=O)O,inactive
2,CC/C=C\CCCCO,"inconclusive: 56.4 µM [inhibitor, partial curve, poor fit]"
3,CC(C)OC(=O)C(C(=O)OC(C)C)=C1SC=CS1,"inconclusive: 30.9 µM [inhibitor, partial curve]"
4,O=Cc1cc2ccccc2o1,inactive
5,CC1=C(C/C=C(\C)CCC[C@H](C)CCC[C@H](C)CCCC(C)C)C(=O)c2ccccc2C1=O,"inconclusive: 24.5 µM [inhibitor, partial curve]"
6,c1ccc2c(c1)[nH]c1ccccc12,"inconclusive: 87.8 µM [inhibitor, partial curve, poor fit]"
7,COC(=O)c1ccc(C=O)cc1,"inconclusive: 71 µM [inhibitor, partial curve]"
8,CC(C)(C)c1nnc(NS(=O)(=O)c2ccc(N)cc2)s1,"inconclusive: 17.4 µM [inhibitor, full curve, poor fit]"
9,Clc1ccc2c(c1)Nc1ccccc1S2,"inconclusive: 7.76 µM [inhibitor, full curve]"
10,C=CC(C)(O)CC/C=C(\C)CC (stereo unspecified),"inconclusive: 71.1 µM [inhibitor, partial curve]"
11,Nc1ccc(C(=O)N2CC3CC(CN(Cc4ccccc4)C3)C2)cc1,"inconclusive: 38.9 µM [inhibitor, partial curve]"
12,C/C=C1\C(=O)C[C@H]2[C@@H]3CCC4=CC(=O)CC[C@]4(C)[C@H]3CC[C@]12C,active: 15.6 µM

# Target: Cytochrome P450 1A2 (Homo sapiens) (UniProt P05177)
# Assay: Cytochrome P450 Family 1 Subfamily A Member 2 (CYP1A2) small molecule antagonists: luciferase reporter qHTS assay (AID 1671199); further: nearly all actives have a fitted effect of over 50% in size
# Settings: P450-Glo CYP1A2 enzyme, luciferin luminescence, 1 h; series mostly up to 115 µM
# Procedure, shortened: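 Steps: enzyme-substrate mix dispensed; test compounds and furafylline control pinned in; 10 min room temperature; NADPH regeneration solution added, 1 h; reaction stopped with luciferin detection reagent; luminescence read after 20 min.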
SMILES,Potency,"activity change, negative = inhibition"
CCCCCCCCCOS(=O)(=O)O,"inconclusive: 89.4 µM [inhibitor, partial curve, poor fit]",
CCCCCCCCCCOc1cc2c(=O)c(C(=O)OCC)c[nH]c2cc1OCC,,inactive: 7.05% [at 10.5 µM]
CC(C)=CCl,"inconclusive: 57.1 µM [inhibitor, partial curve, poor fit]",
CC(C)OC(=O)C(C(=O)OC(C)C)=C1SC=CS1,active: 13.8 µM,
O=CC1CC=CCC1 (stereo unspecified),"inconclusive: 70.3 µM [inhibitor, partial curve]",
CC/C=C\CC/C=C/CO,"inconclusive: 35.6 µM [inhibitor, partial curve]",
Cc1ccc(O)c([N+](=O)[O-])c1,"inconclusive: 36 µM [inhibitor, partial curve]",
CC1=C(C/C=C(\C)CCC[C@H](C)CCC[C@H](C)CCCC(C)C)C(=O)c2ccccc2C1=O,"inconclusive: 24.5 µM [inhibitor, partial curve]",
O=C(O)C(=O)Nc1cccc(-c2nn[nH]n2)c1,inactive,
COC(=O)c1ccc(C=O)cc1,"inconclusive: 35.6 µM [inhibitor, partial curve]",
C[Si]1(C)O[Si](C)(C)O[Si](C)(C)O[Si](C)(C)O1,"inconclusive: 32.1 µM [inhibitor, partial curve] and inactive",
NC(=O)c1cn(Cc2c(F)cccc2F)nn1,inactive,
CC(C)(C)c1nnc(NS(=O)(=O)c2ccc(N)cc2)s1,inactive,
C=CC(C)(O)CC/C=C(\C)CC (stereo unspecified),inconclusive: 71.1 µM [inhibitor],
Nc1ccc(C(=O)N2CC3CC(CN(Cc4ccccc4)C3)C2)cc1,inconclusive: 30.9 µM [inhibitor],

# 3 structures from above, sorted by number of heavy atoms, smallest number first.
SMILES,Potency,"activity change, negative = inhibition"
O=CC1CC=CCC1 (stereo unspecified),"inconclusive: 70.3 µM [inhibitor, partial curve]",
C=CC(C)(O)CC/C=C(\C)CC (stereo unspecified),inconclusive: 71.1 µM [inhibitor],
NC(=O)c1cn(Cc2c(F)cccc2F)nn1,inactive,
